# Experimental data: PubChem BioAssay AID445 (National Center for Advancing Translational Sciences (NCATS), 2006)
# Some of the results follow. These are further read-outs of the screen, such as a control signal, another cell line or another target. No call is given for them. Compounds called inactive in the main read-out are mostly missing here. Words in brackets tell the shape of the fitted curve; partial curves, single points and poor fits give uncertain potencies.
# Assay: IkB Signaling
# Settings: ABC-DLBCL IkBa-CBG/CBR dual luciferase ratio (green luciferase fused to IkBa over red control in OCI-Ly3 lymphoma cells), 4 h; measured here: control luc red channel unless noted
# Procedure, shortened: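 In this assay, an IκBα–CBG68 fusion accumulates when IKK-driven degradation is blocked; native CBR normalizes for cell number. OCI-Ly3 cells were treated 4 h with compound and doxycycline, then green and red light read after Chroma-Glo addition.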
row,Structure (SMILES),AC50
1,CCOC(=O)c1nnn(CC(=O)NC(=O)Nc2cccc(CC)c2)c1C(=O)OCC,"25.1 µM [falling, partial curve]"
2,CSc1nsc(SCC(=O)N2CCCc3ccccc32)n1,"20 µM [falling, single point]"
3,COc1ccc(NC(=O)CSc2nnc(-c3ccoc3C)n2CCc2ccccc2)cc1,"10 µM [falling, partial curve]"
4,Cc1nc2ccc(F)cc2cc1C(=O)NCC1CCCO1 (configuration not stated),"7.94 µM [falling, full curve, poor fit]"
5,O=C(CCn1c(=O)c2cccn2c2ccccc21)Nc1ccc(F)cc1,"12.6 µM [falling, partial curve]"
6,Cc1cc(C)n(-c2nnc(Nc3cc(Cl)ccc3C)c3ccccc23)n1,"15.8 µM [falling, partial curve]"
7,Cc1nc(-c2ccc(C)c(S(=O)(=O)N3CCC(C(=O)Nc4ccc(Cl)cc4)CC3)c2)no1,"10 µM [falling, partial curve]"
8,CCCCCN=c1ccn(Cc2ccccc2)c2ccccc12,"15.8 µM [falling, partial curve]"
9,COc1cc2c(cc1OC)[C@@H]1C(=O)c3ccc4c(c3O[C@@H]1CO2)C=CC(C)(C)O4,"15.8 µM [falling, partial curve]"
10,Cc1ccccc1NC(=O)c1ccc(F)c(S(=O)(=O)N(C)C2CCCCC2)c1,"31.6 µM [falling, single point]"
11,Cc1ccccc1NC(=O)C1CCN(C(=O)c2cnn(-c3ccccc3)c2-n2cccc2)CC1,"25.1 µM [falling, single point]"
12,Cc1cccc(-c2nc3nc(C)cc(NCc4ccccc4Cl)n3n2)c1,"25.1 µM [falling, partial curve]"
13,CCc1ccc(-n2c(N3CCN(c4cccc(Cl)c4)CC3)nc3ccccc3c2=O)cc1,"31.6 µM [falling, single point]"
14,Cc1ccc(NC(=O)N(Cc2cc3cc(C)cc(C)c3[nH]c2=O)CC2COCCO2)cc1 (configuration not stated),"31.6 µM [falling, single point]"
15,Cn1c(O)c(C=NCCCCCC(=O)O)c(=O)n(C)c1=O,"25.1 µM [falling, partial curve]"
16,O=C(NCC(c1cccs1)S(=O)(=O)c1cccs1)c1ccc(Cl)cc1 (configuration not stated),"20 µM [falling, single point]"

# Fetched one by one from the entries so far, 2 records:
row,Structure (SMILES),AC50
11,Cc1ccccc1NC(=O)C1CCN(C(=O)c2cnn(-c3ccccc3)c2-n2cccc2)CC1,"25.1 µM [falling, single point]"
5,O=C(CCn1c(=O)c2cccn2c2ccccc21)Nc1ccc(F)cc1,"12.6 µM [falling, partial curve]"

# Additional entries.

row,Structure (SMILES),AC50
1,Nc1nnc(SCC(=O)Nc2ccccc2)s1,"2 µM [falling, full curve]"
2,c1csc(Cn2c(-c3cccs3)nc3ccccc32)c1,"25.1 µM [falling, partial curve]"
3,Cc1ccc2nc(-c3c[nH]c4ccccc34)c(Nc3ccccc3C)n2c1,"0.0501 µM [falling, full curve]"
4,CCN1CCN(C(=O)Cn2ncc3c4ccccc4n(Cc4ccccc4)c3c2=O)CC1,"25.1 µM [falling, single point]"
5,Cc1cc(C)c(Cn2c3ccccc3c3cnn(CC(=O)NCc4ccccn4)c(=O)c32)c(C)c1,"39.8 µM [rising, single point] [measured here: IkB-luc green channel]"
6,CCOC(=O)Cc1csc(NC(=O)c2ccc(S(=O)(=O)N3CCCC3)cc2)n1,"15.8 µM [falling, partial curve]"
7,O=C(CCS(=O)(=O)c1ccc(Br)cc1)Nc1ccc(Cl)c(C(F)(F)F)c1,"0.0316 µM [falling, full curve, poor fit]"
8,COc1ccccc1CCNC(=O)C(=O)NCC(c1cccs1)S(=O)(=O)c1ccccc1 (configuration not stated),"0.0794 µM [falling, full curve, poor fit]"
9,CCc1ccc(-c2nc(-c3ccncc3)no2)cc1,"12.6 µM [falling, partial curve]"
10,COc1cc(NC(=O)C2CCN(S(=O)(=O)c3ccc4c(c3)oc(=O)n4C)CC2)cc(OC)c1,"12.6 µM [falling, partial curve]"
11,CCOc1ccc(CN2C(=O)c3ccccc3Sc3ccc(C(=O)NC)cc32)cc1,"20 µM [falling, single point]"
12,CC(C)c1cnc2c(c1SCc1cccc(F)c1)c(=O)n(C)c(=O)n2C,"39.8 µM [falling, single point]"
13,CC(=O)N1CCc2cc(Br)cc(S(=O)(=O)N3CCC(C)CC3)c21,"39.8 µM [falling, single point]"
14,Cc1ccccc1Nc1nc(N)nc(CN(C)c2ccccc2)n1,"20 µM [falling, single point]"
15,COc1cc(NC(=O)C2CCCN2S(=O)(=O)c2cccc3cccnc23)cc(OC)c1OC (configuration not stated),"3.16 µM [rising, full curve, poor fit]"
16,Cc1ccccc1-c1nc(CS(=O)(=O)CC(=O)Nc2cc(F)ccc2F)c(C)o1,"39.8 µM [falling, single point]"
